Experimental data published in publication PMC4564277.

Chains of the proteins cited; added tags and fusions are not shown. Residues count along the entry.
UniProt O24606, 82-352: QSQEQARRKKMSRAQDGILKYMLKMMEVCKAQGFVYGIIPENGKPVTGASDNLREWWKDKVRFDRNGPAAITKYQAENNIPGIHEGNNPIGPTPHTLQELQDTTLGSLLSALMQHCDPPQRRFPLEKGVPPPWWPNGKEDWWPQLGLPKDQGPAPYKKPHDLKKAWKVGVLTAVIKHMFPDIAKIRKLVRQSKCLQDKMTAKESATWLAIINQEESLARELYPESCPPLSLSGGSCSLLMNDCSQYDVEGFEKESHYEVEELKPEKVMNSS
UniProt O24606, 91-306: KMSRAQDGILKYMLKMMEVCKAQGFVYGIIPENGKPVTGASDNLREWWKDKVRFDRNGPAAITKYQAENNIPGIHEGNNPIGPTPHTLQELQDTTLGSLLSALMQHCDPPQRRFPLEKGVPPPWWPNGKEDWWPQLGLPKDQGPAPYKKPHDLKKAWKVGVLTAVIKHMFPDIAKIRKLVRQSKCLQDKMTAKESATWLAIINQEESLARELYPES
UniProt O24606, 174-306: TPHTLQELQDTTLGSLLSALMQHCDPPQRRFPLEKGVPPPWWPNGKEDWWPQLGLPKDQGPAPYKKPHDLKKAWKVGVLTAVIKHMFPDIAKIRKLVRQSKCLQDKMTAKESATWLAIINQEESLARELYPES
UniProt O24606, 141-352: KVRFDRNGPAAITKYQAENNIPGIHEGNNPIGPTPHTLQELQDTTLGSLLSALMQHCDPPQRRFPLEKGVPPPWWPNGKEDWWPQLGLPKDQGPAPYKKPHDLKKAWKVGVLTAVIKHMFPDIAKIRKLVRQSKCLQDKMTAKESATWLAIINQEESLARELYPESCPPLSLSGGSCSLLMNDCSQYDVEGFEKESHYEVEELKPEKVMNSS
UniProt O24606, 46-352: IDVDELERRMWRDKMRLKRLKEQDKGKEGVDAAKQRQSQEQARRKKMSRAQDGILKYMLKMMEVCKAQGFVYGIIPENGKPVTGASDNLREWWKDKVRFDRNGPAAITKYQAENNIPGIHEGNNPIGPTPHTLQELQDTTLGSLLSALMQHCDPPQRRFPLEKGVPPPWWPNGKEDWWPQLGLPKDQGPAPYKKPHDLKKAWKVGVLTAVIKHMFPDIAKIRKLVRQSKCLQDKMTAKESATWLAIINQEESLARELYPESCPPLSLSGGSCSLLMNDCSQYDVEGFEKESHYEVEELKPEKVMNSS
UniProt O24606, 114-352: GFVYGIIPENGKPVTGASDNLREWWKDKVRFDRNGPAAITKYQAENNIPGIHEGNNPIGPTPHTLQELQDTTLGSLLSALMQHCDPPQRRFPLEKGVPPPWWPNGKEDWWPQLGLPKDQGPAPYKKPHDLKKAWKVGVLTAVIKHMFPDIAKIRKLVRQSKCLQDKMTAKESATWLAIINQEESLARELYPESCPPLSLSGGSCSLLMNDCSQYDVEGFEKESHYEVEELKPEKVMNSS
UniProt O24606, 35-352: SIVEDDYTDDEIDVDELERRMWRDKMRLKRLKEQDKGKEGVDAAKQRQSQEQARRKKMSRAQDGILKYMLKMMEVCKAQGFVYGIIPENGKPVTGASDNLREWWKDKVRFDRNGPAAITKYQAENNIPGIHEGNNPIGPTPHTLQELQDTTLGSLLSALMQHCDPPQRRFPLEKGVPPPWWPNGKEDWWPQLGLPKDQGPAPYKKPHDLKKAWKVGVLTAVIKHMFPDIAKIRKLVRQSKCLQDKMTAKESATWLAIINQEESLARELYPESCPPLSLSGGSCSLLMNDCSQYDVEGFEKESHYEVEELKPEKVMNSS

What was measured:
Test in all cases: EMSA
[1] = target: EIN3 82-352 (optimal DBD) (Arabidopsis thaliana) (UniProt O24606); details: EMSA: 1 nM biotin probe, 10 mM Tris-HCl pH 7.5, 40 mM KCl, 3 mM MgCl2, 1 mM EDTA, 10% glycerol, 1 mM DTT, 1 ug poly(dI-dC) in 20 uL, room temperature, 30 min; recombinant protein; residues 82-352; protein details: N-terminal His6 (pET-28a); label: 3' biotin on forward strand
[2] = target: EIN3 91-306 (Arabidopsis thaliana) (UniProt O24606); details: EMSA: 1 nM biotin probe, 10 mM Tris-HCl pH 7.5, 40 mM KCl, 3 mM MgCl2, 1 mM EDTA, 10% glycerol, 1 mM DTT, 1 ug poly(dI-dC) in 20 uL, room temperature, 30 min; recombinant protein; residues 91-306; protein details: N-terminal His6 (pET-28a); label: 3' biotin on forward strand
[3] = target: EIN3 174-306 (core DBD) (Arabidopsis thaliana) (UniProt O24606); details: EMSA: 1 nM biotin probe, 10 mM Tris-HCl pH 7.5, 40 mM KCl, 3 mM MgCl2, 1 mM EDTA, 10% glycerol, 1 mM DTT, 1 ug poly(dI-dC) in 20 uL, room temperature, 30 min; recombinant protein; residues 174-306; protein details: N-terminal His6 (pET-28a); label: 3' biotin on forward strand
[4] = target: EIN3 141-352 (Arabidopsis thaliana) (UniProt O24606); details: EMSA: 1 nM biotin probe, 10 mM Tris-HCl pH 7.5, 40 mM KCl, 3 mM MgCl2, 1 mM EDTA, 10% glycerol, 1 mM DTT, 1 ug poly(dI-dC) in 20 uL, room temperature, 30 min; recombinant protein; residues 141-352; protein details: N-terminal His6 (pET-28a); label: 3' biotin on forward strand
[5] = target: EIN3 46-352 (Arabidopsis thaliana) (UniProt O24606); details: EMSA: 1 nM biotin probe, 10 mM Tris-HCl pH 7.5, 40 mM KCl, 3 mM MgCl2, 1 mM EDTA, 10% glycerol, 1 mM DTT, 1 ug poly(dI-dC) in 20 uL, room temperature, 30 min; recombinant protein; residues 46-352; protein details: N-terminal His6 (pET-28a); label: 3' biotin on forward strand
[6] = target: EIN3 114-352 (Arabidopsis thaliana) (UniProt O24606); details: EMSA: 1 nM biotin probe, 10 mM Tris-HCl pH 7.5, 40 mM KCl, 3 mM MgCl2, 1 mM EDTA, 10% glycerol, 1 mM DTT, 1 ug poly(dI-dC) in 20 uL, room temperature, 30 min; recombinant protein; residues 114-352; protein details: N-terminal His6 (pET-28a); label: 3' biotin on forward strand
[7] = target: EIN3 35-352 (Arabidopsis thaliana) (UniProt O24606); details: EMSA: 1 nM biotin probe, 10 mM Tris-HCl pH 7.5, 40 mM KCl, 3 mM MgCl2, 1 mM EDTA, 10% glycerol, 1 mM DTT, 1 ug poly(dI-dC) in 20 uL, room temperature, 30 min; recombinant protein; residues 35-352; protein details: N-terminal His6 (pET-28a); label: 3' biotin on forward strand

| Sequence | binding result [1] | other results |
| --- | --- | --- |
| AAGATACATGCAAAAAAAAAAAGCATGTATCTT (double strand) [2EBS-S15] | binds more weakly |  |
| AAGATACATGCAAAAAAAAAAGCATGTATCTT (double strand) [2EBS-S14] | binds more weakly |  |
| AAGATACATGCAAAAAAAAAGCATGTATCTT (double strand) [2EBS-S13] | binds more weakly |  |
| AAGATACATGCAAAAAAAAGCATGTATCTT (double strand) [2EBS-S12] | binds more weakly |  |
| AAGATACATGCAAAAAAAGCATGTATCTT (double strand) [2EBS-S11] | binds more weakly |  |
| AAGATACATGCAAAAAAGCATGTATCTT (double strand) [2EBS-S10] |  | binding result [2]: binds; binding result [3]: binds more weakly |
| AAGATACATGCAAAAAGCATGTATCTT (double strand) [2EBS-S9] | binds more weakly |  |
| AAGATACATGCAAAGCATGTATCTT (double strand) [2EBS-S7] | binds more weakly |  |
| AAGATACATGCAAGCATGTATCTT (double strand) [2EBS-S6] | binds more weakly |  |
| AAGATACATGCAATTAAGCATGTATCTT (double strand) [TT-S10] | binds |  |
| AAGATACATGCGAAAACGCATGTATCTT (double strand) [GCG-S10] | binds |  |
| AAGATACATGCGCAAGCGCATGTATCTT (double strand) [GCGC-S10] | binds |  |
| AAGATACATTAGGGGGGTAATGTATCTT (double strand) [TA-S10] | binds |  |
| AAGATACATTATAAATATAATGTATCTT (double strand) [TATA-S10] | binds |  |
| AAGATACATTGAGGGGTCAATGTATCTT (double strand) [TCA-S10] | binds |  |
| GTTGTTTGGGAGTGAAGGGGCATGTATCTTGAATCC (double strand) [ERF1 m2] | binds |  |
| GTTGTTTGGGATTCAAGGGGCATGTATCTT (double strand) [ERF1 3-6] | binds |  |
| GTTGTTTGGGATTCAAGGGGCATGTATCTTGA (double strand) [ERF1 3-4] | binds |  |
| GTTGTTTGGGATTCAAGGGGCATGTATCTTGAAT (double strand) [ERF1 3-2] | binds |  |
| GTTGTTTGGGATTCAAGGGGCATGTATCTTGAATCC (double strand) [ERF1] |  | binding result [4]: binds more weakly; binding result [2]: binds more weakly; binding result [3]: binds more weakly; binding result [5]: binds more weakly; binding result [6]: binds more weakly; binding result [7]: binds more weakly |
| GTTGTTTGGGATTGAAGGGGCATGTATCTTGAATCC (double strand) [ERF1 m1] | binds |  |
| TGTATACATGCAAAAAAGCATGTATACA (double strand) [TGT-S10] | binds |  |

The comparison behind a weaker result is the experiment's own reference, which may not be listed here. For some of these results: The exact form of at least one protein or probe is not confirmed. For some of these results: At least one verdict was read from the data and is not stated in words by the source.
